According to PMC4626045:
These are yes or no findings as the source states them, for the method shown.

How the values were obtained:
[1] = biological target: T1, GTP:adenosylcobinamide-phosphate guanylyl transferase (CobY) from Methanocaldococcus jannaschii (Methanocaldococcus jannaschii), Q58517; assay: NMR 15N relaxation (T1, T2, rotational correlation time); apo-CobY, 2.0 mM [U-13C,15N] protein in 50 mM Tris, 5 mM DTT, 50 mM NaCl, 10 mM MgCl2, 95% H2O, 5% D2O; 40°C; both purified; conditions: remark: other sources report otherwise
T1 chain: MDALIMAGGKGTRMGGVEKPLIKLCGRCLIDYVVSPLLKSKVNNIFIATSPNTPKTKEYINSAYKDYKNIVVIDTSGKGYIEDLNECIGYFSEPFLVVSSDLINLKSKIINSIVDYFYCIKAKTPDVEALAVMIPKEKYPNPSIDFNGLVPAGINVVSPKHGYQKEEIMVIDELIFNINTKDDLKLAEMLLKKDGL

[2] = biological target: T1, GTP:adenosylcobinamide-phosphate …; assay: NMR (experiment not told); GTP-bound CobY in solution; told only in the conclusions; both purified; conditions: remark: other sources report otherwise

binding [1]: no binding (tested: 2.0 mM)
binding [2]: no binding
B1: GTP:adenosylcobinamide-phosphate guanylyl transferase (CobY) from Methanocaldococcus jannaschii, Q58517 1-196 (enzyme)
chain: MDALIMAGGKGTRMGGVEKPLIKLCGRCLIDYVVSPLLKSKVNNIFIATSPNTPKTKEYINSAYKDYKNIVVIDTSGKGYIEDLNECIGYFSEPFLVVSSDLINLKSKIINSIVDYFYCIKAKTPDVEALAVMIPKEKYPNPSIDFNGLVPAGINVVSPKHGYQKEEIMVIDELIFNINTKDDLKLAEMLLKKDGL
